# In patent US20230159934:
# Chains of the proteins cited; added tags and fusions are not shown. Chains listed by the source or under a name are the forms on record and can include a tag or linker.
# Insulin receptor (hIR) expressed on Rat-1/hIR cells (Homo sapiens), one chain, as listed by the source, chain 2 of 2: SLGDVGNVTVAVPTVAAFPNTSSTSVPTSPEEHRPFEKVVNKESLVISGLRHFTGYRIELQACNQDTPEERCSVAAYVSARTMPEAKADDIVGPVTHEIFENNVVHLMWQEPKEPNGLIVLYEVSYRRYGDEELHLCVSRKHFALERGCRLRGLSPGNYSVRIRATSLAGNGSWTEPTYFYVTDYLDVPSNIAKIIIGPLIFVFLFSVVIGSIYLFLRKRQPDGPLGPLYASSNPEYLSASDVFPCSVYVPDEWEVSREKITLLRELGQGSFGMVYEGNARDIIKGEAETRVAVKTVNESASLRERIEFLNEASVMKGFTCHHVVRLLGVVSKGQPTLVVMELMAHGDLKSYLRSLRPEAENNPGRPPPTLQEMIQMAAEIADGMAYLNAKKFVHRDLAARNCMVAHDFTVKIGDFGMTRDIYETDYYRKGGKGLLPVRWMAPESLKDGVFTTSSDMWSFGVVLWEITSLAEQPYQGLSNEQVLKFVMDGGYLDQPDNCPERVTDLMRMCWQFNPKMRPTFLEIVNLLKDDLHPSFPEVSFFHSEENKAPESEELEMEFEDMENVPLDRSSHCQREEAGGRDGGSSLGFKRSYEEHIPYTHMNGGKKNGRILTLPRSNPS
# System: Insulin receptor (hIR) expressed on Rat-1/hIR cells (Homo sapiens)
# Assay: activity in cells
# Details: P = naphthyl-dU, 200 nM, protein on the cell surface, single-stranded DNA, variant of A48m (A48 seq 1-19)
sequence,measurement,setting,value
CGCCTGGTGTTCTAGACGACCTATAGGTTAGGC [A48m A25 2'-OMe],functional effect of the aptamer,"2'-OMe at position 25, IR phosphorylation",0 fold of A48m
CGCCTGGTGTTCTAGACGACCTATAGGTTAGGC [A48m C21 C3-linker],functional effect of the aptamer,"C3 linker at position 21, IR phosphorylation",0.06 fold of A48m
CGCCTGGTGTTCTAGACGACCTATAGGTTAGGC [A48m G9 2'-OMe],functional effect of the aptamer,"2'-OMe at position 9, IR phosphorylation",0.08 fold of A48m
CGCCTGGTGTTCTAGACGACCTATAGGTTAGGC [A48m G26 2'-F],functional effect of the aptamer,"2'-F at position 26, IR phosphorylation",0.04 fold of A48m
CGCCTGGTGTTCTAGACGACCTATAGGTTAGGC [A48m G26 2'-OMe],functional effect of the aptamer,"2'-OMe at position 26, IR phosphorylation",0.03 fold of A48m
CGCCTGGTGTTCTAGACGACCTATAGGTTAGGC [A48m G27 C3-linker],functional effect of the aptamer,"C3 linker at position 27, IR phosphorylation",0.05 fold of A48m
